Assay results: PubChem BioAssay AID2551 (National Center for Advancing Translational Sciences (NCATS), 2010)
Where “and” joins values, the source holds several entries; their conditions need not be identical. Identical values can stand only once. About 17,000 (5.5%) of roughly 310,000 compounds were called active. The shares of active, inactive and inconclusive entries below differ from those in the screen. Calls come from the whole dose curve; as a rule, active = well fitted inhibition curve with a large enough effect; inconclusive = small, poorly fitted or top-dose-only effect, or effect the other way; inactive = no such curve, though single readings can be large or run the other way. Potencies of inconclusive entries are doubtful fits and often do not repeat.

Protein sequences, listed by entry. Tags and fused reporters are not part of them. Lines headed by an entry give the natural chain unless they say otherwise; changes in a name come on top.
UniProt P51450: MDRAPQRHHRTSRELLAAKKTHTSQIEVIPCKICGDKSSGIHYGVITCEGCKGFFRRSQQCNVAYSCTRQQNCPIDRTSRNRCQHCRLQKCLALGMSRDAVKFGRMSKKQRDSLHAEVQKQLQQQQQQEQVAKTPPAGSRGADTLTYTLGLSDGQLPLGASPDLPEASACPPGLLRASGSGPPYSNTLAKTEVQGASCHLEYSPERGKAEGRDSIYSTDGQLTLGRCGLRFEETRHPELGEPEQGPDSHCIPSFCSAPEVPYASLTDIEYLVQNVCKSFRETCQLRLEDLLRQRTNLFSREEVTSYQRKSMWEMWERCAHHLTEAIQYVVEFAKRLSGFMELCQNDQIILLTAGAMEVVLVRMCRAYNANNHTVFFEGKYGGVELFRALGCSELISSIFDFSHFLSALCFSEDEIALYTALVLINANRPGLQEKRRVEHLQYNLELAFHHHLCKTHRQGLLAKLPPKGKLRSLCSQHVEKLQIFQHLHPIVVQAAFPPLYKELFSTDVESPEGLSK

Biological target: Nuclear receptor ROR-gamma (Mus musculus) (UniProt P51450)
Assay: qHTS for inhibitors of ROR gamma transcriptional activity; note: nearly all actives have a fitted effect of over 60% in size
Details: Drosophila S2 Gal4-RORgamma UAS-luciferase reporter, 20 h; activity change, negative = inhibition: at 53.6 µM (top of the series)
In short: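 Stably transfected Drosophila Schneider cells are the test system, with ROR gamma fused to Gal4 and luciferase under UAS control; luminescence is read after 20 hr of 700 uM copper sulfate induction at ambient temperature.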
% is set by controls: 0 for no effect and ±100 for the full control effect; potency is the fitted concentration of half-maximal effect.

SMILES | Potency | activity change, negative = inhibition
O=C(NC1CCCCC1)c1cnn2c(C(F)(F)F)cc(-c3ccco3)nc12 | inconclusive: 35.5 µM [activator, single point] | –
CCOC(=O)C1CCCN(C(=O)c2sc3nc(C)nc(N(CC)CC)c3c2C)C1 (stereo not given) | inconclusive: 2.51 µM [activator, full curve] | –
C=CCn1c(SCc2ccc(C(=O)Nc3ccccc3)cc2)nnc1-c1ccccc1 | inconclusive: 7.94 µM [activator, partial curve] | –
CCCCN=C(NNc1ccc(Br)cc1)C(=O)OCC | inconclusive: 35.5 µM [activator, single point] | –
CCCC1CC(C)(C(=O)CSc2n[nH]c(-c3ccccc3)n2)OC1=O (stereo not given) | inconclusive: 0.562 µM [inhibitor, full curve, poor fit] | –
CC1(C)SC2[C@@H](N=CN3CCCCCC3)C(=O)N2[C@H]1C(=O)O (stereo not given in full) | – | inactive: -12.1% [at 10 µM]
NC(=S)n1[nH]c(-c2ccc([N+](=O)[O-])cc2)c(N=Nc2ccc(Cl)cc2)c1=O | active: 0.398 µM | –
Cc1ccc(-c2nc(CS(=O)(=O)CC(=O)N3CC(C)CC(C)C3)c(C)o2)cc1 (stereo not given) | inconclusive: 35.5 µM [activator, single point] | –
Cc1c(CCC(=O)NCCC(=O)O)c(=O)oc2c(C)c3oc4c(c3cc12)CCCC4 | – | inactive: -25.2%
O=C(CCC(=O)c1cccs1)NC(c1ccccc1)c1ccccc1 | inconclusive: 11.2 µM [activator, partial curve] | –
Cc1cc(C)cc(N(C(=O)CNS(=O)(=O)c2ccccc2)C(C(=O)NCc2ccccc2)c2ccc(C)o2)c1 (stereo not given) | inconclusive: 12.6 µM [activator, single point] | –
Cc1cc(C)c2nc(-c3cccnc3)cc(C(=O)NC(C)c3cnn(C)c3C)c2c1 (stereo not given) | – | inactive: -1.44%
CC(C)NC(=O)N1CCCC2(CCN(S(=O)(=O)c3ccccc3)CC2)C1 | – | inactive: -11.1%
Cc1cccc(CN2CCN(c3nc4nonc4nc3NC3CC3)CC2)c1 | inconclusive: 14.1 µM [activator, partial curve] | –
COc1cccc(C(C[N+](=O)[O-])c2c(C)[nH]n(-c3ccccc3)c2=O)c1 (stereo not given) | inconclusive: 15.8 µM [inhibitor, single point] | –
CC(C)(C)C(=O)c1cnc(Nc2ccccc2)s1 | inconclusive: 35.5 µM [inhibitor, single point] | –
Cc1ccc2nc(C)c(C(=O)N/N=C/c3cccs3)n2c1 | active: 11.2 µM | –
O=C(Nc1cccc(S(=O)(=O)Nc2ccccc2Cl)c1)c1ccc(N2CCCC2)c([N+](=O)[O-])c1 | inconclusive: 0.355 µM [inhibitor, full curve, poor fit] | –
NC(=O)c1nsc(C(=O)N(CCc2ccccc2)C(C(=O)NC2CCCC2)c2ccco2)c1N (stereo not given) | – | inactive: 27.8%
O=C(CCc1ccccc1)NNC(=O)CCc1ccccc1 | – | inactive: -6.48%
COc1ccc(Cc2nnc(SCC(=O)Nc3nc(C)cs3)o2)cc1 | active: 35.5 µM | –
CC1(c2ccc([N+](=O)[O-])cc2)Nc2ccccc2S1 (stereo not given) | – | inactive: 19.9%
O=C(Nc1cccc(-c2ccc3nncn3n2)c1)C(F)(F)F | – | inactive: 3.24%

SMILES | Potency | activity change, negative = inhibition
O=C(N/N=C/c1cccc(F)c1)c1c(O)c2c([nH]c1=O)CCCC2 | inconclusive: 35.5 µM [activator, partial curve, poor fit] | –
Cc1ccc(/C=N/Nc2nc3ccccc3[nH]2)s1 | active: 4.47 µM | –
Cc1cc(C)c2c(SC(C)C)nc(N)nc2n1 | – | inactive: 0.111%
Cc1cc(O)cc2c(=O)c3ccccc3sc12 | – | inactive: -30.8%
O=C(OCC(=O)c1c[nH]c2ccccc12)c1ccco1 | inconclusive: 3.55 µM [activator, partial curve, poor fit] | –
CCc1ccc(/C=C2\Oc3cc(OC(=O)N4CCOCC4)ccc3C2=O)cc1 | inconclusive: 11.2 µM [activator, partial curve] | –
CCN(C(=O)CSc1nc2cc(Cl)ccc2c(=O)n1Cc1ccco1)C1CCS(=O)(=O)C1 (stereo not given) | – | inactive: 37%
CCOc1ccc(/C=N/OCC(=O)NC(c2ccccc2)c2ccccc2)cc1 | inconclusive: 28.2 µM [activator, single point] | –
O=c1c2ccccc2n(CC(O)CN2CCOCC2)c2ccccc12 (stereo not given) | – | inactive: 3.17%
Cc1c(C)c2ccc(OCC(=O)N3CCN(c4cccc(Cl)c4)CC3)cc2oc1=O | – | inactive: 0.847%
CCOC(=O)N1CCC(=NNC(=O)COc2cccc(C)c2)CC1 | inconclusive: 15.8 µM [inhibitor, single point] | –
Cc1cc(Cl)c(S(=O)(=O)Nc2ccc3c(c2)OCCO3)cc1OCC(=O)NC1CCCCC1 | – | inactive: -29%
COC(=O)C(=Cc1cc(Br)c(OC)c(Br)c1)C(=O)OC | inconclusive: 2.82 µM [activator, single point] | –
COc1ccc(NC(=O)c2ccc(-c3ccccc3C(F)(F)F)o2)cc1 | – | inactive: 7.3%
COCCCNC(=S)Nc1ccccc1C | inconclusive: 15.8 µM [inhibitor, single point] | –
O=C(NCC(=O)N(c1cccc(F)c1)C(C(=O)NCC1CCCO1)c1ccccc1)c1ccco1 (stereo not given) | active: 6.31 µM | –
C=C(C)Cc1c(C)c(C#N)c2[nH]c3ccccc3n2c1=O | inconclusive: 11.2 µM [activator, partial curve, poor fit] | –
COc1cc(/C=N/NC(=O)CN(Cc2ccco2)S(=O)(=O)c2ccccc2)ccc1O | inconclusive: 5.62 µM [activator, partial curve] | –
COc1ccc(OCC(=O)Nn2c(-c3ccc(OC)cc3)nc3ccccc3c2=O)cc1 | inconclusive: 3.55 µM [activator, partial curve] | –
Cc1ccc(N2CCN(/N=C/C3=C(N4CCOCC4)C(=C\c4ccccc4)/CC3)CC2)cc1 | – | inactive: 9.11%
CC(=O)c1sc(N/N=C/c2ccc(C(C)C)cc2)nc1C | inconclusive: 35.5 µM [inhibitor, single point] | –
CC1=NN(c2ccccc2)C(=O)C1 | inconclusive: 35.5 µM [activator, partial curve] and inconclusive: 17.8 µM [activator, single point] and inconclusive: 12.6 µM [activator, single point] | –
